Experimental data: PubChem BioAssay AID1259254 (NCATS, 2017)
The deposit covers about 59,000 reagents; this is a part drawn at random. About 1,550 of all reagents (2.6%) were called active. 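G2 share is only a proxy for re-replication; each gene was hit by three separate siRNAs, and active genes were retested.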 A number with no mark means an inactive call. The numbers tell different reagents against one gene apart. Further read-outs or replicates are left out here. Reagent sequences are not shown. Not given: the amount of reagent.

Purpose: 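Genome-wide screen for genes that prevent DNA re-replication in cancer cells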 (primary screen)
Cell system: human HCT116 colorectal cancer cells
Reagents: single siRNA against human genes
Duration: 3 days
Read-out: 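Nuclei stained with Hoechst and imaged; cell-cycle phase assigned by DNA content; G2 share scaled per plate, non-targeting siRNA 0%, GMNN siRNA 100%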
Direction: G2 robust z-score and G2 cells, % of GMNN control: higher = more G2 cells, more excess DNA replication
Hit rule: 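Active siRNAs have a G2 robust z of 5 or more median absolute deviations over the median, which in these data means about 38% or higher of GMNN control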

What did the screen give for TMEM141 #1?
G2 robust z-score: 1.59; G2 cells, % of GMNN control: 14.2

How did the screen score TMEM141 #2?
G2 robust z-score: 0.284; G2 cells, % of GMNN control: 4.97

What did the screen give for TMEM141 #3?
G2 robust z-score: 0.144; G2 cells, % of GMNN control: 3.98

Which result is listed for RPL21P20 #1?
G2 robust z-score: 3.29; G2 cells, % of GMNN control: 26.1

What is on record for RPL21P20 #2?
G2 robust z-score: 1.2; G2 cells, % of GMNN control: 11.4

Which result is listed for RPL21P20 #3?
G2 robust z-score: 3.27; G2 cells, % of GMNN control: 26

With ZC3H11B #1, what does the deposit list?
G2 robust z-score: -0.134; G2 cells, % of GMNN control: 2.03

For ZC3H11B #2, what was measured?
G2 robust z-score: -0.105; G2 cells, % of GMNN control: 2.23

Which result is listed for ZC3H11B #3?
G2 robust z-score: -1.14; G2 cells, % of GMNN control: -5.04

For SRBD1 #1, what was measured?
G2 robust z-score: 8.93 (active); G2 cells, % of GMNN control: 65.8

For SRBD1 #2, how do the results read?
G2 robust z-score: 4.08; G2 cells, % of GMNN control: 31.7

For SRBD1 #3, how do the results read?
G2 robust z-score: 1.83; G2 cells, % of GMNN control: 15.8

With OR5L2 #1, what does the deposit list?
G2 robust z-score: 9.04 (active); G2 cells, % of GMNN control: 66.6

Which result is listed for OR5L2 #2?
G2 robust z-score: -0.566; G2 cells, % of GMNN control: -1.01

How did the screen score OR5L2 #3?
G2 robust z-score: -0.718; G2 cells, % of GMNN control: -2.08

For PCBP2 #1, what was measured?
G2 robust z-score: -0.0628; G2 cells, % of GMNN control: 2.53

Which result is listed for PCBP2 #2?
G2 robust z-score: 0.114; G2 cells, % of GMNN control: 3.77

With PCBP2 #3, what does the deposit list?
G2 robust z-score: 0.0725; G2 cells, % of GMNN control: 3.48

Which result is listed for H2AC4 #1?
G2 robust z-score: 0.399; G2 cells, % of GMNN control: 5.78

What did the screen give for H2AC4 #2?
G2 robust z-score: -0.854; G2 cells, % of GMNN control: -3.04

With H2AC4 #3, what was measured?
G2 robust z-score: 3.08; G2 cells, % of GMNN control: 24.6

How did the screen score RNF227 #1?
G2 robust z-score: 1.02; G2 cells, % of GMNN control: 10.2

What did the screen give for RNF227 #2?
G2 robust z-score: 0.828; G2 cells, % of GMNN control: 8.8

For RNF227 #3, what was measured?
G2 robust z-score: 0.332; G2 cells, % of GMNN control: 5.3

Laid out differently: results already given
Gene | reagent no. | G2 robust z-score | G2 cells, % of GMNN control
TMEM141 | 3 | 0.144 | 3.98
RPL21P20 | 1 | 3.29 | 26.1
RPL21P20 | 2 | 1.2 | 11.4
RPL21P20 | 3 | 3.27 | 26
